Laboratory results published in US12544426B2, “Combination therapy with CD13-targeted chimeric proteins or chimeric protein complexes” (Orionis Biosciences, Inc., priority 2019, dated 2026).
At least one structure is not confirmed: it was looked up by name or label, or the drawing left a doubt.

Tested on: B16BI6 tumor
Assay: B16BI6 melanoma model, tumor growth
Type: in vivo, mouse
Conditions: Example 3, alone or combined with Wortmannin
Text: FIG. 2A is a graph showing the change in B16BI6 tumor size in B16 mice treated with PBS, CD8-targeted chimeric protein (CD8-Actaferon) alone, BcII10 targeted mutated murine TNF (Y114L) alone, or CD8-targeted chimeric protein (CD8-Actaferon) and BcII10 targeted mutated murine TNF (Y114L). FIG. 2B is a graph showing the change in B16BI6 tumor size in B16 mice treated with PBS, CD8-targeted chimeric protein (CD8-Actaferon) alone, CD13 targeted mutated murine TNF (Y114L) alone, or CD8-targeted chimeric protein (CD8-Actaferon) and CD13 targeted mutated murine TNF (Y114L). […] Tumor growth is shown as mean TSI+SEM (n=6 per group). The line under the graph represents the treatment period. […] Error bars are SEM. ***, p<0.001 by one-way ANOVA with Bonferroni's multiple comparison test. […]
FIG. 7A: Toxicity of wt sc mTNF and mutant Y86F after injection (T) in naïve C56BU6 mice. […] FIG. 7B: Plasma IL-6 concentrations measured via ELISA. […]
FIG. 8A and 8B: B16BI6 tumor growth after daily p.1. treatment with 7 μg mTNF, 30 μg hTNF alone or in combination with 10000 IU mIFN-γ in wt C57BL/6 mice (a) or homozygous Flk1 dnIFN-γR transgenic mice. […] FIG. 8C: IL-8 concentration in HUVEC supernatant after 24 h stimulation with the indicated concentration of sc hTNF mutant Y87F (Y87F), hCD13-AFR or wt hTNF, alone or in combination with 200 ng/ml hIFN-γ, measured via ELISA. […]

## COC[C@H]1OC(=O)c2coc3c2[C@@]1(C)C1=C(C3=O)[C@@H]2CCC(=O)[C@@]2(C)C[C@H]1OC(C)=O [Wortmannin]
  Tumor growth (FIG. 3B): very little effect on tumor growth
